Results taken from PubChem BioAssay AID330 (DTP/NCI, 2004).
The list is a part of this screen's results and no random one: it is rich in T/C values a quarter to a half above the control, in often repeated tests (any T/C) and in doses without a T/C. Further doses and runs are listed elsewhere. T/C is the treated group as % of the vehicle group. Some entries give survivors of the animals treated and no T/C: the source holds a T/C of zero for them, seemingly a mark for toxic or unscored doses. Counts of survivors are from the toxicity check (mostly the fifth day) where no day follows; animals may have died later. Schedule codes are those of the source, read here as Q, the interval in days (D) or hours (H), X, the number of doses. For survival time, this PubChem deposit counts one and a half times the control or more as active, and values a quarter to a half above the control carry no call in these data; other NCI protocols may use other cut-offs.

Tested on: P388 leukemia ip, CD2F1 mice, survival T/C
Assay: NCI In Vivo Anticancer Drug Screen. Data for tumor model P388 Leukemia (intraperitoneal) in CD2F1 (CDF1) mice
Details: T/C endpoint: median survival time, higher T/C = longer survival

CCOC1N(c2ccc(Cl)cc2)CN(C)CC1(C)C (stereo not given)
T/C (dose: 200.0 mg/kg/injection, schedule: Q01DX009 (ip), vehicle: saline with Tween-80): 126 % of control

CNC(C)(C(=O)O)C(=O)Nc1ccccc1 (stereo not given)
T/C (dose: 400.0 mg/kg/injection, schedule: Q01DX001 (ip), vehicle: saline): 130 % of control

Oc1ccc(O)c(Cl)c1Cl
survivor count (dose: 200.0 mg/kg/injection, schedule: Q04DX003 (ip), vehicle: saline): 3 of 6

c1ccc(N2CCN(C(c3cccs3)N3CCN(c4ccccc4)CC3)CC2)cc1
survivor count (dose: 240.0 mg/kg/injection, schedule: Q01DX005 (ip), vehicle: saline with Tween-80): 0 of 6

Cc1cc(NN=O)nc(C)n1
T/C (dose: 100.0 mg/kg/injection, schedule: Q01DX009 (ip), vehicle: water): 125 % of control
